Reference: PubChem BioAssay AID1345085 (National Center for Advancing Translational Sciences (NCATS), 2018)
The shares of active, inactive and inconclusive entries below differ from those in the screen. A potency beside an inconclusive call is a rough fit, not a confirmed value. The source made the active and inactive calls. Calls come from the whole dose curve; as a rule, active = well fitted cell-killing curve with a large enough effect; inconclusive = small, poorly fitted or top-dose-only effect, or effect the other way; inactive = no such curve, though single readings can be large or run the other way.

What follows are molecules tested on SKOV3 (assay: Confirmatory qHTS for gynecologic anti-cancer compounds from libraries of approved drugs and bioactive compounds). Conditions: gynecologic cancer cell panel viability, ATPlite luminescence, 48 h; series mostly up to 57.6 µM; activity change, negative = viability loss: at the top concentration.
How it was run: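 1,000 cells/well; 16 h pre-incubation 37 C, 5% CO2; pin-transferred cpd in DMSO, 11 conc (1:3), 57.5 uM–0.977 nM; 48 h; ATPlite, 15 min RT; luminescence → IC50.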
% is set by controls: 0 for no effect and ±100 for the full control effect; potency is the fitted concentration of half-maximal effect.
Note: nearly all actives have a fitted effect of over 55% in size.

| Structure (SMILES) | Potency | activity change, negative = viability loss |
| --- | --- | --- |
| CN1CCN(c2ccc(OC(F)(F)F)c(Nc3ncc4c(n3)-c3c(c(C(N)=O)nn3CCO)CC4)c2)CC1 | inconclusive: 0.0611 µM [cytotoxic, full curve, poor fit] | – |
| CC1(C)[C@@H](O)CC[C@]2(C)[C@H]3C(=O)C=C4[C@@H]5C[C@@](C)(C(=O)O)CC[C@]5(C)CC[C@@]4(C)[C@]3(C)CC[C@@H]12 | inconclusive: 9.68 µM [rising, partial curve, poor fit] | – |
| CC(Oc1ccc2[nH]nc(/C=C/c3cnn(CCO)c3)c2c1)c1c(Cl)cncc1Cl (stereo unspecified) | active: 3.06 µM | – |
| Cc1ccc(C(=O)Nc2ccc(CN3CCN(C)CC3)c(C(F)(F)F)c2)cc1C#Cc1cnc2[nH]ncc2c1 | inconclusive: 0.0968 µM [cytotoxic, full curve, poor fit] | – |
| COc1cc(Nc2ncc(F)c(Nc3ccc4c(n3)N(COP(=O)(O)O)C(=O)C(C)(C)O4)n2)cc(OC)c1OC | active: 5.44 µM | – |
| Nc1ccccc1NC(=O)c1ccc(CNc2nccc(-c3cccnc3)n2)cc1 | active: 0.432 µM | – |
| CC(C)C[C@H](NC(=O)[C@@H](NC(=O)c1cccc(-c2ccccc2)n1)[C@@H](C)O)B(O)O | inconclusive: 3.06 µM [cytotoxic, full curve] | – |
| Cc1cc(C(=O)N2CCN(c3cccc(Cl)c3)CC2)n(-c2ccccc2)n1 | active: 0.544 µM | – |
| CCc1cccc(CC)c1NC(=O)N1Cc2[nH]nc(NC(=O)c3ccc(N4CCN(C)CC4)cc3)c2C1 | – | inactive: -10.9% |
| CCC1C(=O)N(C)c2cnc(Nc3ccc(C(=O)NC4CCN(C)CC4)cc3OC)nc2N1C1CCCC1 (stereo unspecified) | active: 0.109 µM | – |
| O=c1c(-c2ccc(O)cc2)coc2cc(O)cc(O)c12 | inconclusive: 15.3 µM [cytotoxic, partial curve] | – |

Entries of single compounds, looked up by structure. Order of values: Potency | activity change, negative = viability loss
Nc1ccccc1NC(=O)c1ccc(CNc2nccc(-c3cccnc3)n2)cc1 is entered as active: 0.432 µM | –
CC(C)C[C@H](NC(=O)[C@@H](NC(=O)c1cccc(-c2ccccc2)n1)[C@@H](C)O)B(O)O is entered as inconclusive: 3.06 µM [cytotoxic, full curve] | –
